Laboratory results as given in PubChem BioAssay AID540256 (National Center for Advancing Translational Sciences (NCATS), 2011).
In all, about 300,000 compounds went through this assay and about 3,700 (1.2%) were called active. The inconclusive results got no clear call from the source; some entries with a clear call stand among them for comparison. Calls come from the whole dose curve; tested in HEK293 cells. Potencies of inconclusive entries are doubtful fits and often do not repeat.

Experiment: qHTS for Inhibitors of binding or entry into cells for Lassa Virus; note: nearly all actives have a fitted effect of over 50% in size
Settings: Lassa virus pseudotype entry inhibition, cell reporter; activity change, negative = inhibition: at 37.9 µM (top of the series) unless noted
% is set by controls: 0 for no effect and ±100 for the full control effect; potency is the fitted concentration of half-maximal effect.

Question: For `COc1ccc(CC(=O)N(C)Cc2cccc(OC)c2OC)cc1S(=O)(=O)N1CCOCC1`, which Potency is on record?
Answer: inconclusive: 3.98 µM [inhibitor, single point]

Question: For `Cc1ccc(SCC(=O)c2ccc[nH]2)cc1`, which “activity change, negative = inhibition” value is on record?
Answer: inactive: -11.5%

Question: With `COc1ccc(/C=C(\C#N)C(=O)OCC(=O)NC(C)c2ccccc2)cc1` (stereo unspecified) as the compound, how does the Potency read?
Answer: inconclusive: 20 µM [activator, partial curve, poor fit]

Question: Which “activity change, negative = inhibition” value does the source give for `COc1ccc(N2CCN(C(c3ccc(F)cc3)c3sc4nc(-c5ccco5)nn4c3O)CC2)cc1` (stereo unspecified) here?
Answer: inactive: 16.5% [at 46.1 µM]

Question: For `CS(=O)(=O)c1ccc(-c2cn3cc(C(=O)O)ccc3n2)cc1`, which Potency is on record?
Answer: inconclusive: 15.8 µM [inhibitor, partial curve, poor fit]

Question: For `CC(=O)c1ccc(N2CCN(CC3CCCCC3)CC2)cc1`, which Potency is on record?
Answer: inconclusive: 3.98 µM [inhibitor, full curve, poor fit]

Question: For `CCOC(=O)C1(Cc2cccc(OC)c2)CCN(Cc2ccc3c(c2)OCCO3)CC1`, which Potency is on record?
Answer: inconclusive: 11.2 µM [inhibitor, partial curve, poor fit]

Question: With `CN(C)CC(O)CN1C(=O)N(CN2C(=O)N(CC(O)CN(C)C)C(=O)C2(C)C)C(C)(C)C1=O` (stereo unspecified) as the compound, how does the “activity change, negative = inhibition” value read?
Answer: inactive: -2.33%

Question: For `CCOc1cc2[nH]c(=S)n(Cc3ccc(C(=O)NCCOC)cc3)c(=O)c2cc1OCC`, which Potency is on record?
Answer: inconclusive: 25.9 µM [activator, partial curve, poor fit]

Question: With `CCN1CCN(C(c2ccc(F)cc2)c2sc3nc(-c4ccco4)nn3c2O)CC1` (stereo unspecified) as the compound, how does the Potency read?
Answer: inconclusive: 22.4 µM [inhibitor, single point]

Question: With `O=C(Oc1c(Cl)cc(Cl)c2cccnc12)N1CCOCC1` as the compound, how does the Potency read?
Answer: inconclusive: 0.651 µM [activator, single point]

Question: Which Potency does the source give for `Nc1nc(NCc2ccccc2)n(-c2ccccc2)n1` here?
Answer: inconclusive: 15.8 µM [inhibitor, single point]

Question: Which “activity change, negative = inhibition” value does the source give for `O=C(C1CC1)N1CCc2cc(S(=O)(=O)NC3CCN(Cc4ccccc4)CC3)ccc21` here?
Answer: inactive: -17.7%

Question: Which Potency does the source give for `COc1cc(C(=O)Nc2ccc(Cl)c([N+](=O)[O-])c2)cc(OC)c1OC` here?
Answer: inconclusive: 35.5 µM [inhibitor, single point]

Question: Which “activity change, negative = inhibition” value does the source give for `COc1ccc(CCN2CCCn3c2nc2c3c(=O)n(CC(N)=O)c(=O)n2C)cc1OC` here?
Answer: inactive: -6.33%

Question: Which “activity change, negative = inhibition” value does the source give for `COc1ccc(OC)c2c(N3CCN(C)CC3)cc(C(F)(F)F)nc12` here?
Answer: inactive: -0.922%

Question: For `Brc1ccc(C2Nc3cccc4cccc(c34)N2)cc1`, which “activity change, negative = inhibition” value is on record?
Answer: inactive: -8.76% [at 46.1 µM]

Question: With `Cc1ccc(NS(=O)(=O)c2cc(C(=O)NCc3ccccn3)ccc2Cl)cc1C` as the compound, how does the Potency read?
Answer: inconclusive: 29.1 µM [inhibitor, single point]

Question: For `COc1ccccc1N1CCN(/N=C/C(Cl)=C/c2ccccc2)CC1`, which Potency is on record?
Answer: inconclusive: 5.62 µM [inhibitor, single point]

Question: Which Potency does the source give for `COc1ccc(C(=O)N/N=C(\C)c2ccc3c(c2)C2C=CCC2C(c2ccccc2)N3)cc1` (stereo unspecified) here?
Answer: inconclusive: 3.55 µM [inhibitor, single point]

Question: Which Potency does the source give for `COc1ccc(C2c3[nH]c4ccccc4c3CCN2C(=O)c2ccc(=O)n(C)n2)c(F)c1` (stereo unspecified) here?
Answer: inconclusive: 22.4 µM [inhibitor, single point]

Question: With `COc1ccc(C(C)=O)cc1CSc1nnc(Nc2ccc(C)cc2C)s1` as the compound, how does the Potency read?
Answer: inconclusive: 11.2 µM [inhibitor, partial curve, poor fit]

Question: Which Potency does the source give for `CCc1cc(C(=O)N(Cc2ccccc2)c2c(N)n(CCOC)c(=O)[nH]c2=O)sc1C` here?
Answer: inconclusive: 0.794 µM [inhibitor, single point]

Question: With `CSCCC(CO)NC(=O)OCc1ccccc1` (stereo unspecified) as the compound, how does the Potency read?
Answer: inconclusive: 25.1 µM [inhibitor, partial curve, poor fit]

Question: For `O=C1NC(=O)/C(=C/c2ccc(OS(=O)(=O)c3ccc(F)cc3F)cc2)N1`, which Potency is on record?
Answer: inconclusive: 20 µM [inhibitor, partial curve]

Question: Which “activity change, negative = inhibition” value does the source give for `CCN1CCN(S(=O)(=O)c2ccc(Cl)c(C(=O)NC(C)c3ccccc3Cl)c2)CC1` (stereo unspecified) here?
Answer: inactive: 4.49%

Question: For `O=C(N/N=C/c1ccc(OC(=O)c2cccs2)cc1)c1ccccn1`, which Potency is on record?
Answer: inconclusive: 17.8 µM [inhibitor, single point]

Question: For `COc1cccc(-c2ccc(-c3noc(-c4cccs4)n3)c(OC)n2)c1`, which Potency is on record?
Answer: inconclusive: 0.562 µM [inhibitor, single point]

Question: For `CCOc1ccccc1C(=O)NCC(=O)OCC(=O)c1ccc2c(c1)OCCO2`, which “activity change, negative = inhibition” value is on record?
Answer: inactive: 13.7%

Question: For `Cc1occc1-c1nnc(SCC(=O)N2CCN(c3ccccc3F)CC2)n1C`, which “activity change, negative = inhibition” value is on record?
Answer: inactive: -24.3%

Question: With `CN(C)S(=O)(=O)c1ccc(NC(=S)NC(=O)c2cccs2)cc1` as the compound, how does the “activity change, negative = inhibition” value read?
Answer: inactive: 20.5% [at 46.1 µM]

Question: For `O=S(=O)(c1ccc(Cl)cc1)N1CCC(n2cccc2)CC1`, which Potency is on record?
Answer: inconclusive: 7.08 µM [inhibitor, full curve, poor fit]

Question: Which Potency does the source give for `CCOc1ccc2c(CC)cc(=O)oc2c1OCC` here?
Answer: inconclusive: 35.5 µM [inhibitor, single point]

Question: Which Potency does the source give for `COc1ccc(/C=C/c2n[nH]c(=O)c(C#N)c2C)cc1` here?
Answer: inconclusive: 6.31 µM [activator, partial curve, poor fit]

Question: For `COc1cc(NC(=O)CSc2ncnc3sc4c(c23)CCC(C)C4)c(C(=O)O)cc1OC` (stereo unspecified), which Potency is on record?
Answer: inconclusive: 7.08 µM [activator, partial curve]

Question: For `Cc1cc(CSc2nc(C)cc(=O)[nH]2)c2ncccc2c1`, which Potency is on record?
Answer: inconclusive: 31.6 µM [inhibitor, single point]

Question: With `Cc1ccc(NC(=O)COc2ccc(Cl)cc2Cl)cc1S(=O)(=O)N1CCOCC1` as the compound, how does the Potency read?
Answer: inconclusive: 12.6 µM [inhibitor, single point]

Question: Which “activity change, negative = inhibition” value does the source give for `CCOC(=O)C1(Cc2ccc(Cl)cc2)CCN(C(=O)CCc2cnccn2)CC1` here?
Answer: inactive: 9.89%

Question: With `CCCC(=O)Nc1ccc2nc(SCC(=O)N3CCOCC3)sc2c1` as the compound, how does the “activity change, negative = inhibition” value read?
Answer: inactive: 20% [at 46.1 µM]

Question: Which Potency does the source give for `Cc1ccc(NC(=O)NC(=O)c2ccccc2)cc1F` here?
Answer: inconclusive: 12.6 µM [activator, partial curve, poor fit]

Question: For `CC(=O)Nc1ccc(SCC(=O)c2cc(C)ccc2C)cc1`, which Potency is on record?
Answer: inconclusive: 5.62 µM [inhibitor, single point]

Question: Which Potency does the source give for `Cn1c(=O)c2c(nc(NCc3cccnc3)n2Cc2ccc(Cl)cc2)n(C)c1=O` here?
Answer: inconclusive: 0.891 µM [inhibitor, full curve, poor fit]

Question: With `CCN(CC)CC#CCC(C)(c1ccccc1)c1ccccc1` as the compound, how does the Potency read?
Answer: inconclusive: 29.1 µM [inhibitor, single point]

Question: For `NC(=O)/C(=N\OC(=O)c1ccco1)c1nc(-c2ccc(Br)cc2)cs1`, which “activity change, negative = inhibition” value is on record?
Answer: inactive: 13.4%

Question: Which Potency does the source give for `COc1cccc(N2CCN(CC(=O)NC3=Nc4ccccc4N=C(C)C3c3ccccc3)CC2)c1` (stereo unspecified) here?
Answer: inconclusive: 35.5 µM [inhibitor, single point]

Question: With `Nc1ccnn1Cc1ccc(Br)s1` as the compound, how does the Potency read?
Answer: inconclusive: 35.5 µM [activator, single point]

Question: For `O=C(/C=C/c1cccc([N+](=O)[O-])c1)Nc1cccc(NC(=O)c2cccs2)c1`, which Potency is on record?
Answer: inconclusive: 29.1 µM [inhibitor, single point]

Question: With `COc1ccc(-c2csc(NC(=O)CSc3nc(SC)ns3)n2)cc1` as the compound, how does the “activity change, negative = inhibition” value read?
Answer: inactive: 0.119%

Question: Which Potency does the source give for `COc1ccc(N2CCN(C(c3cc(OC)ccc3OC)c3nnnn3CC3CCCO3)CC2)cc1` (stereo unspecified) here?
Answer: inconclusive: 16.4 µM [inhibitor, partial curve]

Question: Which Potency does the source give for `O=C(NCCc1ccccn1)c1ccc(NS(=O)(=O)c2ccc(F)cc2)cc1` here?
Answer: inconclusive: 3.16 µM [activator, single point]

Question: With `CC1CCCCN1C(=O)CSc1nc(C2CC2)nc2c1cnn2-c1ccccc1` (stereo unspecified) as the compound, how does the Potency read?
Answer: inconclusive: 29.1 µM [inhibitor, single point]

Question: With `CCOC(=O)C(C(=O)OCC)C(Nc1cccc(Br)c1)c1ccccc1` (stereo unspecified) as the compound, how does the “activity change, negative = inhibition” value read?
Answer: inactive: 0.617%

Question: For `Cc1cc(C)n(-c2ccc(C(=O)Nc3ccc4c(c3)OCO4)cc2)n1`, which Potency is on record?
Answer: inconclusive: 35.5 µM [inhibitor, single point]

Question: With `CCC(=O)NC(=S)Nc1ccc(N2CCN(C(=O)c3ccc(Cl)cc3)CC2)cc1` as the compound, how does the Potency read?
Answer: inconclusive: 35.5 µM [inhibitor, single point]

Question: With `Cc1ccc(C2CC(=O)N3CN(Cc4ccco4)CSC3=C2C#N)cc1` (stereo unspecified) as the compound, how does the Potency read?
Answer: inconclusive: 3.66 µM [activator, partial curve, poor fit]

Question: Which Potency does the source give for `O=C(Nc1nc(-c2ccc(S(=O)(=O)N3CCCC3)cc2)cs1)c1cccs1` here?
Answer: inconclusive: 28.2 µM [inhibitor, single point]

Question: Which Potency does the source give for `O=C(Cc1ccccc1)Nc1c[nH]c(=O)[nH]c1=O` here?
Answer: inconclusive: 15.8 µM [activator, partial curve, poor fit]

Question: With `CC(C)c1cc(-c2nc(-c3cccc(Cl)c3)no2)n[nH]1` as the compound, how does the “activity change, negative = inhibition” value read?
Answer: inactive: 5.12% [at 46.1 µM]

Question: Which Potency does the source give for `Clc1cccc(-c2csc(Nc3cccnc3)n2)c1` here?
Answer: inconclusive: 12.6 µM [activator, single point]

Question: Which Potency does the source give for `C=CCOc1ccc(CN(C)CC(O)COc2ccc(CCC(C)=O)cc2)cc1` (stereo unspecified) here?
Answer: inconclusive: 35.5 µM [inhibitor, partial curve, poor fit]

Question: For `Cc1ccccc1CN1C[C@@H]2C[C@@H](c3cn[nH]c3-c3ccc(F)cc3)N3CCC[C@@]23C1=O`, which Potency is on record?
Answer: inconclusive: 28.2 µM [inhibitor, partial curve, poor fit]

Question: With `CCOc1ccc(N/C=C/C(=O)c2ccccc2)cc1` as the compound, how does the Potency read?
Answer: active: 7.08 µM

Question: Which Potency does the source give for `O=C(C1CCC1)N(CCc1ccccc1)Cc1nc2ccccc2c(=O)[nH]1` here?
Answer: inconclusive: 8.2 µM [inhibitor, partial curve, poor fit]

Question: For `O=[N+]([O-])c1ccc(O)c(-c2ccnc3cc(-c4ccccc4)nn23)c1`, which Potency is on record?
Answer: inconclusive: 35.5 µM [inhibitor, single point]

Question: For `COc1ccccc1C=NN1C(=O)CSC1=S`, which “activity change, negative = inhibition” value is on record?
Answer: inactive: 7.02% [at 46.1 µM]

Question: With `Cc1ccnn1CCC(=O)N1CCCC(CCC(=O)NCc2ccccc2F)C1` (stereo unspecified) as the compound, how does the Potency read?
Answer: inconclusive: 25.1 µM [inhibitor, single point]
